PubChem BioAssay AID1259405, NCATS – 2018
The whole screen tested about 50,000 reagents; this is an unselected part. About 4,000 of them (8%) were called active. 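Mouse siRNA library applied to hamster cells; one well for each siRNA.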 Reagents against one gene are numbered here.

- Assay: 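Mouse-designed siRNAs used to find CHO productivity engineering targets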 (primary screen)
- System: Chinese hamster CHO-K1 ovary cells with stable secreted eGFP expression
- Knock-down reagent: single siRNA against mouse genes, 0.8 pmol siRNA per well (2 µl of 400 nM stock)
- Duration: 3 days
- Detection: 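Percent of the per-plate non-targeting control median for intracellular GFP per well by laser scanning cytometry and for cell viability by ATP luminescence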
- Reading the numbers: GFP, % of control: higher = more GFP per well, higher productivity; viability (ATP), % of control: higher = more viable cells (more ATP)
- Rule for the call: 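a knock-down is called active if GFP reaches 120% or more of non-targeting control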

What is on record for Pcca (GeneID 110821) #1?
GFP, % of control: 80.8; viability (ATP), % of control: 65; call: inactive

For Pcca (GeneID 110821) #2, what was measured?
GFP, % of control: 113; viability (ATP), % of control: 75.1; call: inactive

For Pcca (GeneID 110821) #3, how do the results read?
GFP, % of control: 98.9; viability (ATP), % of control: 103; call: inactive

What did the screen give for Csgalnact1 (GeneID 234356) #1?
GFP, % of control: 30.9; viability (ATP), % of control: 44.7; call: inactive

What is on record for Csgalnact1 (GeneID 234356) #2?
GFP, % of control: 81.4; viability (ATP), % of control: 83.4; call: inactive

With Csgalnact1 (GeneID 234356) #3, how do the results read?
GFP, % of control: 72.7; viability (ATP), % of control: 78.2; call: inactive

For Or6z7 (GeneID 18349) #1, how do the results read?
GFP, % of control: 126; viability (ATP), % of control: 90.2; call: active

For Or6z7 (GeneID 18349) #2, how do the results read?
GFP, % of control: 74.7; viability (ATP), % of control: 86.9; call: inactive

How did the screen score Or6z7 (GeneID 18349) #3?
GFP, % of control: 108; viability (ATP), % of control: 85.6; call: inactive

With Csnk1e (GeneID 27373), how do the results read?
GFP, % of control: 53.6; viability (ATP), % of control: 52.4; call: inactive

What did the screen give for Ccdc177 (GeneID 380768) #1?
GFP, % of control: 69.9; viability (ATP), % of control: 77; call: inactive

For Ccdc177 (GeneID 380768) #2, what was measured?
GFP, % of control: 111; viability (ATP), % of control: 60.4; call: inactive

How did the screen score Ccdc177 (GeneID 380768) #3?
GFP, % of control: 97.4; viability (ATP), % of control: 84.7; call: inactive

For Pcdha12 (GeneID 192164) #1, how do the results read?
GFP, % of control: 88.1; viability (ATP), % of control: 73.7; call: inactive

What did the screen give for Pcdha12 (GeneID 192164) #2?
GFP, % of control: 46.7; viability (ATP), % of control: 33.7; call: inactive

With Pcdha12 (GeneID 192164) #3, how do the results read?
GFP, % of control: 105; viability (ATP), % of control: 88.5; call: inactive

With Gnb2 (GeneID 14693) #1, how do the results read?
GFP, % of control: 173; viability (ATP), % of control: 113; call: active

With Gnb2 (GeneID 14693) #2, what does the deposit list?
GFP, % of control: 48.4; viability (ATP), % of control: 61.1; call: inactive

For Gnb2 (GeneID 14693) #3, how do the results read?
GFP, % of control: 32.5; viability (ATP), % of control: 28.1; call: inactive

What did the screen give for Cyp4f15 (GeneID 106648) #1?
GFP, % of control: 41.2; viability (ATP), % of control: 67.7; call: inactive

With Cyp4f15 (GeneID 106648) #2, what was measured?
GFP, % of control: 114; viability (ATP), % of control: 105; call: inactive

What did the screen give for Cyp4f15 (GeneID 106648) #3?
GFP, % of control: 96.3; viability (ATP), % of control: 95.1; call: inactive

For Il23r (GeneID 209590) #1, what does the deposit list?
GFP, % of control: 71.7; viability (ATP), % of control: 84.6; call: inactive

For Il23r (GeneID 209590) #2, how do the results read?
GFP, % of control: 74.7; viability (ATP), % of control: 65.2; call: inactive

With Il23r (GeneID 209590) #3, how do the results read?
GFP, % of control: 78.4; viability (ATP), % of control: 62.2; call: inactive

What did the screen give for Skp1 (GeneID 21402) #1?
GFP, % of control: 35.7; viability (ATP), % of control: 31.3; call: inactive

For Skp1 (GeneID 21402) #2, what was measured?
GFP, % of control: 50.6; viability (ATP), % of control: 27.2; call: inactive

For Skp1 (GeneID 21402) #3, what was measured?
GFP, % of control: 66.7; viability (ATP), % of control: 51.7; call: inactive

Single entries from the entries so far.
Ccdc177 (GeneID 380768) #1, GFP, % of control → 69.9
Under “call”, Or6z7 (GeneID 18349) #1 has active
